From US20110045568A1, “METHOD FOR RESTORING BMP-RECEPTOR SIGNALING IN A CELL” (FREIE UNIVERSITÄT BERLIN, priority 2008, published 2011) come the findings set out here.

The target of the experiment is FLAG-Smad5 (transfected, 293T cells). Description: IP of cGKIβ from transfected 293T cells with or without BMP-2, immunoblot α-Smad1/5. In general terms: A western blot detects proteins with antibodies after separation by electrophoresis.

These are yes or no findings as the source states them, for the method shown. Binding calls can cover weak binding; strength is not graded here.

B1: cGKIβ (cGMP-dependent protein kinase I, β isoform), overexpressed in C2C12 or 293T cells (enzyme)
chain: MGTLRDLQYALQEKIEELRQRDALIDELELELDQKDELIQKLQNELDKYRSVIRPATQQAQKQSASTLQGEPRTKRQAISAEPTAFDIQDLSHVTLPFYPKSPQSKDLIKEAILDNDFMKNLELSQIQEIVDCMYPVEYGKDSCIIKEGDVGSLVYVMEDGKVEVTKEGVKLCTMGPGKVFGELAILYNCTRTATVKTLVNVKLWAIDRQCFQTIMMRTGLIKHTEYMEFLKSVPTFQSLPEEILSKLADVLEETHYENGEYIIRQGARGDTFFIISKGTVNVTREDSPSEDPVFLRTLGKGDWFGEKALQGEDVRTANVIAAEAVTCLVIDRDSFKHLIGGLDDVSNKAYEDAEAKAKYEAEAAFFANLKLSDFNIIDTLGVGGFGRVELVQLKSEESKTFAMKILKKRHIVDTRQQEHIRSEKQIMQGAHSDFIVRLYRTFKDSKYLYMLMEACLGGELWTILRDRGSFEDSTTRFYTACVVEAFAYLHSKGIIYRDLKPENLILDHRGYAKLVDFGFAKKIGFGKKTWTFCGTPEYVAPEIILNKGHDISADYWSLGILMYELLTGSPPFSGPDPMKTYNIILRGIDMIEFPKKIAKNAANLIKKLCRDNPSERLGNLKNGVKDIQKHKWFEGFNWEGLRKGTLTPPIIPSVASPTDTSNFDSFPEDNDEPPPDDNSGWDIDF
Consider B1, for which the binding entry was “binds”.
